PubChem BioAssay AID1259425, University of Nebraska Medical Center – 2018
This is an unselected part of about 14,000 reagents tested. Further read-outs or replicates are left out here. The record does not give: the time to read-out.

Assay: 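Seek colon cancer weak points whose silencing resembles KSR1 loss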 (primary screen)
System: HCT116 human colon cancer cells
Reagent: siRNA pool against human genes, 50 nM siRNA
Measurement: 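mRNA of six signature genes measured together by branched-DNA assay after 50 nM siRNA pool, blank removed, divided by geometric mean of two housekeeping genes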
Scale: BNIP3L mRNA: higher = more BNIP3L transcript after knockdown

For GPR37L1 (G protein-coupled receptor 37 like 1), the values are BNIP3L mRNA, set 1 = 0.0866.
Depletion of AATF (apoptosis antagonizing transcription factor) came out at: BNIP3L mRNA, set 1 = 0.0519.
Silencing of UQCC2 (ubiquinol-cytochrome c reductase complex assembly factor 2) came out at: BNIP3L mRNA, set 1 = 0.0998.
ACYP1 (acylphosphatase 1) gave BNIP3L mRNA, set 1 = 0.071.
With knock-down of KAZN (kazrin, periplakin interacting protein), the record shows BNIP3L mRNA, set 1 = 0.0994.
For IPO8 (importin 8), the entry reads BNIP3L mRNA, set 1 = 0.0935.
For RAC3 (Rac family small GTPase 3) the deposit lists BNIP3L mRNA, set 1 = 0.0435.
For SLC30A2, the values are BNIP3L mRNA, set 1 = 0.0827.
For TMEM134 (transmembrane protein 134), the values are BNIP3L mRNA, set 1 = 0.175.
With knock-down of MRPS14 (mitochondrial ribosomal protein S14), the record shows BNIP3L mRNA, set 1 = 0.112.
Against NUDT11 (nudix hydrolase 11) the deposit lists BNIP3L mRNA, set 1 = 0.104.
Against TRIB1 (tribbles pseudokinase 1), the values are BNIP3L mRNA, set 1 = 0.107.
With knock-down of TIGAR (TP53 induced glycolysis regulatory phosphatase), the record shows BNIP3L mRNA, set 1 = 0.0741.
After knock-down of CUL2 (cullin 2) the results were BNIP3L mRNA, set 1 = 0.106.
With knock-down of CHRNA9 (cholinergic receptor nicotinic alpha 9 subunit) the results were BNIP3L mRNA, set 1 = 0.0695.
After knock-down of SPATA3 (spermatogenesis associated 3) the results were BNIP3L mRNA, set 1 = 0.11.
After knock-down of CPT1B (carnitine palmitoyltransferase 1B), the screen gave BNIP3L mRNA, set 1 = 0.112.
CTNS (cystinosin, lysosomal cystine transporter) gave BNIP3L mRNA, set 1 = 0.0582.
Knock-down of ARID3B (AT-rich interaction domain 3B) gave: BNIP3L mRNA, set 1 = 0.109.
Knock-down of GSPT2 (G1 to S phase transition 2) came out at: BNIP3L mRNA, set 1 = 0.15.
Depletion of USP25 (ubiquitin specific peptidase 25) gave: BNIP3L mRNA, set 1 = 0.111.
MMP10 (matrix metallopeptidase 10) gave BNIP3L mRNA, set 1 = 0.0953.
FAM219B (family with sequence similarity 219 member B) gave BNIP3L mRNA, set 1 = 0.152.
After knock-down of PRRC2C (proline rich coiled-coil 2C) the results were BNIP3L mRNA, set 1 = 0.232.
After knock-down of DSCR8 (Down syndrome critical region 8), the screen gave BNIP3L mRNA, set 1 = 0.129.
With knock-down of PPP1R15B (protein phosphatase 1 regulatory subunit 15B), the screen gave BNIP3L mRNA, set 1 = 0.0711.
Depletion of TMED5 (transmembrane p24 trafficking protein 5) came out at: BNIP3L mRNA, set 1 = 0.171.
With knock-down of TMEM258 (transmembrane protein 258), the record shows BNIP3L mRNA, set 1 = 0.191.

Already shown: entries from further up.
SPATA3 (spermatogenesis associated 3): BNIP3L mRNA, set 1 = 0.11
CPT1B (carnitine palmitoyltransferase 1B): BNIP3L mRNA, set 1 = 0.112
